Paper PMC5382670
Results are given in words; binding and its absence hold for the method and conditions named. Binding seen in cells or lysates may run through a third protein. Some entries that bind do so weakly or less than the wild type.

Sequences of proteins named here, by UniProt entry; tags and fusion partners are left off.
UniProt Q62120: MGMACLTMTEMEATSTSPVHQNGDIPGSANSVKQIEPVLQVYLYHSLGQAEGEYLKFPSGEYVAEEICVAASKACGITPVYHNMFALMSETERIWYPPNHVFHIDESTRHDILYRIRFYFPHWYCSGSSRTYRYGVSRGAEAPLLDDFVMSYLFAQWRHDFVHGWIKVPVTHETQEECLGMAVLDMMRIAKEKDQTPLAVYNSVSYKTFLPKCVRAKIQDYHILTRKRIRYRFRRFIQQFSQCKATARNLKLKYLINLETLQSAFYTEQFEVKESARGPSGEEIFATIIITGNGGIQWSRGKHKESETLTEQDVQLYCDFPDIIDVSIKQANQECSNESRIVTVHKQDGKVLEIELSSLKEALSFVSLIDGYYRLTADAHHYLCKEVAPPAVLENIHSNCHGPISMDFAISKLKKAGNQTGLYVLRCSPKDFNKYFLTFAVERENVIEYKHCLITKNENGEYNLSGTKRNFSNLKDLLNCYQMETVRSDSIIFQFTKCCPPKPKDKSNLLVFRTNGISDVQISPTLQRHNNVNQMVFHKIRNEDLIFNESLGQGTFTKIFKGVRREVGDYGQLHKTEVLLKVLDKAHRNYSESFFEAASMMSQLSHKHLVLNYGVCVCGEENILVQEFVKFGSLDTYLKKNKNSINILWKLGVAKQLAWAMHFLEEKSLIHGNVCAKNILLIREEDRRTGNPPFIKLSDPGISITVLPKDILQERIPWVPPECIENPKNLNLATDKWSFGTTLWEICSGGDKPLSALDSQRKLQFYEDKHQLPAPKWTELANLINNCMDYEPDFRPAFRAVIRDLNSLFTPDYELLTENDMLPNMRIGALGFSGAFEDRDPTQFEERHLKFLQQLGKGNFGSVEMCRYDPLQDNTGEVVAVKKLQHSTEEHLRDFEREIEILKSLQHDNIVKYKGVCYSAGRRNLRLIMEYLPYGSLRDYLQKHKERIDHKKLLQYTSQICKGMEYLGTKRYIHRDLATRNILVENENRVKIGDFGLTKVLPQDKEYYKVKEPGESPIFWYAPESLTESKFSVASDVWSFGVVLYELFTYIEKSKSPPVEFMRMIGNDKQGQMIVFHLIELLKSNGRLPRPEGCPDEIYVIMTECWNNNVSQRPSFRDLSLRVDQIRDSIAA

Molecular target: Janus kinase 2 (JAK2), endogenous in mouse NK cells (mouse (endogenous in splenic NK cells)) (UniProt Q62120)
Assay: proximity ligation; Duolink in situ PLA of endogenous proteins in mouse splenic (primary) NK cells treated with IL-15 (30 ng/ml) for 12 hours; WT and SOCS2-/- cells compared for IL-15R-JAK2

B1: Suppressor of cytokine signaling 2 (SOCS2), endogenous in mouse NK cells (protein, UniProt O35717 1-198)
chain: MTLRCLEPSGNGADRTRSQWGTAGLPEEQSPEAARLAKALRELSQTGWYWGSMTVNEAKEKLKEAPEGTFLIRDSSHSDYLLTISVKTSAGPTNLRIEYQDGKFRLDSIICVKSKLKQFDSVVHLIDYYVQMCKDKRTGPEAPRNGTVHLYLTKPLYTSAPTLQHFCRLAINKCTGTIWGLPLPTRLKDYLEEYKFQV
B1 was tested, and the binding was “binds”.
